Results reported in article PMC10916433 (2023).
These are yes or no findings as the source states them, for the method shown. In cells and extracts the contact can be indirect. Some binding calls cover weakened binding; strength is not graded here. Tags and fused reporters may be left off the sequences shown.

Sequences of proteins named here, by UniProt entry; tags and fusion partners are left off. A change or cut given only in a name is not applied to a line headed by its entry. A line that says so, or that is headed by a name, gives the form on record, which may keep a tag or linker. Residues count along the entry.
Flag‐tagged wild‐type RAGE (Q62151, residues 23-402): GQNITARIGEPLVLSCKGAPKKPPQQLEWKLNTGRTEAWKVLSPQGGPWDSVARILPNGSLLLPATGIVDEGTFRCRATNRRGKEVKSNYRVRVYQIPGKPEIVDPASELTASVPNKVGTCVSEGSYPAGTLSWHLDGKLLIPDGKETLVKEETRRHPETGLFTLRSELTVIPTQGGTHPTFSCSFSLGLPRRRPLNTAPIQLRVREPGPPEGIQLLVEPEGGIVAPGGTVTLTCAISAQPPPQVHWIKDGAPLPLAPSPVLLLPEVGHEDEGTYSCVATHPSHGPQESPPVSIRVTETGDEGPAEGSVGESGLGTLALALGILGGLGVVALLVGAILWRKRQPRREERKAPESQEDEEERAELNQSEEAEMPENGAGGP
Flag‐tagged mutated RAGE (AAs 362–367) (Q62151, form named): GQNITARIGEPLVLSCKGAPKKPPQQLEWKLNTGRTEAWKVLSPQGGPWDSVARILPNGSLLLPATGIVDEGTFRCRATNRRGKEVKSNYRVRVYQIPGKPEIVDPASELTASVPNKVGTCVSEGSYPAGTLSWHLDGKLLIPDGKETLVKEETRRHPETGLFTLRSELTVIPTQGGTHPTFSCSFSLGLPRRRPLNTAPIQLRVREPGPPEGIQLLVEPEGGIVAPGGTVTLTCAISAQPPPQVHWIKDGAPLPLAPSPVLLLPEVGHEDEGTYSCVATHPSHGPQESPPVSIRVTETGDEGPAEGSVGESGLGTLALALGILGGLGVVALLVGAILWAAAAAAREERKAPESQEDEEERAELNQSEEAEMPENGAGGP

Molecular target: T1, His‐tagged RIPK1 (UniProt Q60855)
T1 sequence: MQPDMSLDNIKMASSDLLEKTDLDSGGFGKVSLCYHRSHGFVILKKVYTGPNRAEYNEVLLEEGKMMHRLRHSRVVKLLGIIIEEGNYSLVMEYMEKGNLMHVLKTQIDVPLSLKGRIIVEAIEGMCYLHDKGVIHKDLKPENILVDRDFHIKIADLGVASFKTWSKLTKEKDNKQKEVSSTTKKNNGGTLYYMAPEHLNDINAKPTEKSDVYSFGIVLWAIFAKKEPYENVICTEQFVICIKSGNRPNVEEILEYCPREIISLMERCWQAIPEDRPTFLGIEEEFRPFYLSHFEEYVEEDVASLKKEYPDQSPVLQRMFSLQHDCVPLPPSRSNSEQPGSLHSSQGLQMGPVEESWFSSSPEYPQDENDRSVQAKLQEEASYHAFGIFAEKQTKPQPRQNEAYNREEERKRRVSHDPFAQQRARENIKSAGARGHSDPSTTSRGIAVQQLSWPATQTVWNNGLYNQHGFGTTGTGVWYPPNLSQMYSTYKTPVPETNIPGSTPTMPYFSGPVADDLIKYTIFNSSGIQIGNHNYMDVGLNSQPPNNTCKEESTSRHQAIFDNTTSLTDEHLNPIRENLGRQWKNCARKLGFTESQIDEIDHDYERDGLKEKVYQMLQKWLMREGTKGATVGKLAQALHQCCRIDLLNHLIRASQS
Assay: co-IP; Flag‐RAGE‐Wt/Mut and His‐RIPK1 co‐transfected into BV2 microglia; precipitated with anti‐Flag and anti‐His antibodies, respectively; Western blotting

## Flag‐tagged mutated RAGE (AAs 362–367) (from UniProt Q62151 23-402) (receptor)
  binding: no binding

## Flag‐tagged wild‐type RAGE (from UniProt Q62151 23-402) (receptor)
  binding: binds
